For 60 targets, NP40-soluble protein abundance results are on record in the supplement of paper PMC6411743.

Amino acid sequences for entries named in this document (tags omitted). A change or cut given only in a name is not applied to a line headed by its entry.
UniProt O60869: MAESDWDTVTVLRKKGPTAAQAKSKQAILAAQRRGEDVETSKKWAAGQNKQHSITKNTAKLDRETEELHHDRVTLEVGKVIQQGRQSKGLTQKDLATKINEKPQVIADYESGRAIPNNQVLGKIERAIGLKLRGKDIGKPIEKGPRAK
UniProt O60825: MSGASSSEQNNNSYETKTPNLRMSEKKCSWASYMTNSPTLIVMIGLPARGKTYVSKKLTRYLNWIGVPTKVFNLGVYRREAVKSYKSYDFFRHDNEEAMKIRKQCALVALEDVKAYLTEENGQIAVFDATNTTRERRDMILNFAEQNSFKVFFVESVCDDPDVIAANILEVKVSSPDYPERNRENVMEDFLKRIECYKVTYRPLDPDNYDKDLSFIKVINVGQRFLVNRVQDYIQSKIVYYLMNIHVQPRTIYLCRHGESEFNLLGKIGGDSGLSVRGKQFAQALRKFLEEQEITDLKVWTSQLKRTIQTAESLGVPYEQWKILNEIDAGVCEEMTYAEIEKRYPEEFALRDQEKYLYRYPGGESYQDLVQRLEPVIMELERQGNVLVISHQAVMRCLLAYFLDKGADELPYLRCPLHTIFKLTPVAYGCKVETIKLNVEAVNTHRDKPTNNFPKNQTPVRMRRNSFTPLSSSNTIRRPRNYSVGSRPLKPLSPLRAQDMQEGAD
UniProt O75791: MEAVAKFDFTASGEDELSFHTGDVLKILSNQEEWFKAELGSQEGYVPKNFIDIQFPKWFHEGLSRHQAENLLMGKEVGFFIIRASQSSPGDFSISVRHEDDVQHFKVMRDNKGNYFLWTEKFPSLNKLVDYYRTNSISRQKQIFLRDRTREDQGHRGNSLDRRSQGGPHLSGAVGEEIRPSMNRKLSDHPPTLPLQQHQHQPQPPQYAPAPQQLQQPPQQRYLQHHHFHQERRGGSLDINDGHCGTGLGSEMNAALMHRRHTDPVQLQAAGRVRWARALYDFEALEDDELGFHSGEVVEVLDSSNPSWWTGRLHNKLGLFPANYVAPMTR
UniProt O95251, whole entry: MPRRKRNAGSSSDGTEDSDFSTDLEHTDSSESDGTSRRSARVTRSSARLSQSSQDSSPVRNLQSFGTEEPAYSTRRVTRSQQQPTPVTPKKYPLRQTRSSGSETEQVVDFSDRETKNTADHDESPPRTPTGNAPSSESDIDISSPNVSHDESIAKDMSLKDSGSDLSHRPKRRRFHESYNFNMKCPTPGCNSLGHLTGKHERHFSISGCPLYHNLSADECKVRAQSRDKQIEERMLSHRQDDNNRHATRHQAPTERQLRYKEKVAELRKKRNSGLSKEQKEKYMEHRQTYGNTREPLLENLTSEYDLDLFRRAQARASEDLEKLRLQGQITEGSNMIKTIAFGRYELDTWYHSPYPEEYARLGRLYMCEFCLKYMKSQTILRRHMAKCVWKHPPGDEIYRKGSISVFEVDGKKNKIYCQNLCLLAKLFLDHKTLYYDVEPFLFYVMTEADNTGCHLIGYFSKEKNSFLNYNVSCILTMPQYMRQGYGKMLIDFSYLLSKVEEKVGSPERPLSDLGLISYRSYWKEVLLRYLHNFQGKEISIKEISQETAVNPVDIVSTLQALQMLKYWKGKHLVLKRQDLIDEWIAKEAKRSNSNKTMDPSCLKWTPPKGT
UniProt O60830: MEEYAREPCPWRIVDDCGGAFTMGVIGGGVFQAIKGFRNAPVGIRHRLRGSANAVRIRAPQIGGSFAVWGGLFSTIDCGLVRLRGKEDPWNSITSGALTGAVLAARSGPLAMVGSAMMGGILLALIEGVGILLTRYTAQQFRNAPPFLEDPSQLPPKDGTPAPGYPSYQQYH
UniProt O94832: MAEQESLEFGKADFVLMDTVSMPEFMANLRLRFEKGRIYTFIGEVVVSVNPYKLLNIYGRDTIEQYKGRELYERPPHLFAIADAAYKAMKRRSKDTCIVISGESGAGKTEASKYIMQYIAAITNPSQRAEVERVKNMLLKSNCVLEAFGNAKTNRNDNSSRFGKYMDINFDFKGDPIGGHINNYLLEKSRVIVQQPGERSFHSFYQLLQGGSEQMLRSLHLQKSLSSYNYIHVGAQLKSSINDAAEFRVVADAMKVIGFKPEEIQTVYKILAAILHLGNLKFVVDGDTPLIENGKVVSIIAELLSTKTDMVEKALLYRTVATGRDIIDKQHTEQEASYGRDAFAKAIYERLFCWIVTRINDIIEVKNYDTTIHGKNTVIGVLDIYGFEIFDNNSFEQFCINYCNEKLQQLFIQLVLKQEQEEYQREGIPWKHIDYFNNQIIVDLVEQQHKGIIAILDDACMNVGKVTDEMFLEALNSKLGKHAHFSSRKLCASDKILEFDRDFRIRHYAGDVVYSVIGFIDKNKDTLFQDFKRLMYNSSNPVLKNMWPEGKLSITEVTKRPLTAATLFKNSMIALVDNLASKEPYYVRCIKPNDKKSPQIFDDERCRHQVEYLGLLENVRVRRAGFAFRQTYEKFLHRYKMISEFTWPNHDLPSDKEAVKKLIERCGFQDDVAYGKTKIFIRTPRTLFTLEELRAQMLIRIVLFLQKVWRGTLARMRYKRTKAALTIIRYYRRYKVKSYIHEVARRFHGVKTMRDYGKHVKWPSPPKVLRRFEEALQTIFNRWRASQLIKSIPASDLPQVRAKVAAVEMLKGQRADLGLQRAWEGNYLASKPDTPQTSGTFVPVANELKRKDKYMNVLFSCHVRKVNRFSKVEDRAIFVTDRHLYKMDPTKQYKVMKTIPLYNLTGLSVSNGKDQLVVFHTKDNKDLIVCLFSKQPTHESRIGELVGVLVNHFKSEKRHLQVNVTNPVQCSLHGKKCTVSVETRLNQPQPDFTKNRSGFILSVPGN
UniProt O75379: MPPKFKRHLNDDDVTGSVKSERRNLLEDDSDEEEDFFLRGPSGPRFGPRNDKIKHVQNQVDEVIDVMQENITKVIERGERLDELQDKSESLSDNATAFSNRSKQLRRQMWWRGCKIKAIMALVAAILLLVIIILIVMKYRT
UniProt O60763: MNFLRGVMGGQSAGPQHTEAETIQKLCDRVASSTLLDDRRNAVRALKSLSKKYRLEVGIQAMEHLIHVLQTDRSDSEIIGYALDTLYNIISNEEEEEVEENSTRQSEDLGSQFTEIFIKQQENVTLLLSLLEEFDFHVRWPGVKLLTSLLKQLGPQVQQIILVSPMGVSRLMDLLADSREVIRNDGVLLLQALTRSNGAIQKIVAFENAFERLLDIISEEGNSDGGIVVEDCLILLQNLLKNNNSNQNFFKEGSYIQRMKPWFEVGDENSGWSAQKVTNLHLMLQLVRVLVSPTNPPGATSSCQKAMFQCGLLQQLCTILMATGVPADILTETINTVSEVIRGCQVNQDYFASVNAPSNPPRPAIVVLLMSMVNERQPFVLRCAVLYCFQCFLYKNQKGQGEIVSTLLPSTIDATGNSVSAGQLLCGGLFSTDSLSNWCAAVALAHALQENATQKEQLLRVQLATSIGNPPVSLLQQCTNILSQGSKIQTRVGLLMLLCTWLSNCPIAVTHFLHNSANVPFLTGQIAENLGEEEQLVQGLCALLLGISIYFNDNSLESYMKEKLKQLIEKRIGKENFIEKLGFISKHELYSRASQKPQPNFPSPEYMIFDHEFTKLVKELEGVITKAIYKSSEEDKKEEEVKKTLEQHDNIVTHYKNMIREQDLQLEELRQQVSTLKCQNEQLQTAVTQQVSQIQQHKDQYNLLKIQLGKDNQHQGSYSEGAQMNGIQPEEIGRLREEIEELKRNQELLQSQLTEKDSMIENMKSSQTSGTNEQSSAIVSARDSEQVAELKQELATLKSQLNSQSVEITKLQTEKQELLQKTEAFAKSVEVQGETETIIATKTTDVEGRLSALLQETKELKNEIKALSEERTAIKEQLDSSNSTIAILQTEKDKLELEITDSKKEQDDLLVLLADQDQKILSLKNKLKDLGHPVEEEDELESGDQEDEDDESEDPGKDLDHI
UniProt O75534: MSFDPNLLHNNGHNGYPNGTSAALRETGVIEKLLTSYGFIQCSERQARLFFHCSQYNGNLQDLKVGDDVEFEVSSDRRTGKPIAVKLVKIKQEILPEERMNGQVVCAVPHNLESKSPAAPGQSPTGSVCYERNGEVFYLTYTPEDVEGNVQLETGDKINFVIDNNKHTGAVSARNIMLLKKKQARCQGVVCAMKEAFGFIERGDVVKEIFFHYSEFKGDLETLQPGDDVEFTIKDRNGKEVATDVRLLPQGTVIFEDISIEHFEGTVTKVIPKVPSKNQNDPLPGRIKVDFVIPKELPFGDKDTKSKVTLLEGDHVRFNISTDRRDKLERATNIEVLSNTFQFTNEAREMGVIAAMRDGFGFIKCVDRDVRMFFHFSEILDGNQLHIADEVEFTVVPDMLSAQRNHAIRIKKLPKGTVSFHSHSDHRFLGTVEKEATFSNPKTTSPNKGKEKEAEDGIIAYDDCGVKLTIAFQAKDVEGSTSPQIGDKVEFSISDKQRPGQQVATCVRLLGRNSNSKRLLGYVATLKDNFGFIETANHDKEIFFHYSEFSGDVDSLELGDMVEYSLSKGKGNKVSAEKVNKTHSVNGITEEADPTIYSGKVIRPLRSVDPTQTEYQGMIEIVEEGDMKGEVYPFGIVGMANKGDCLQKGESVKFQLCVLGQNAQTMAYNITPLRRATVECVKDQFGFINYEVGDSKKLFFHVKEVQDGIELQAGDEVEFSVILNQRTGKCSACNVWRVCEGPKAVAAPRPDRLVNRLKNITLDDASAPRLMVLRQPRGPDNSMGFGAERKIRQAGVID
UniProt O94826, whole entry: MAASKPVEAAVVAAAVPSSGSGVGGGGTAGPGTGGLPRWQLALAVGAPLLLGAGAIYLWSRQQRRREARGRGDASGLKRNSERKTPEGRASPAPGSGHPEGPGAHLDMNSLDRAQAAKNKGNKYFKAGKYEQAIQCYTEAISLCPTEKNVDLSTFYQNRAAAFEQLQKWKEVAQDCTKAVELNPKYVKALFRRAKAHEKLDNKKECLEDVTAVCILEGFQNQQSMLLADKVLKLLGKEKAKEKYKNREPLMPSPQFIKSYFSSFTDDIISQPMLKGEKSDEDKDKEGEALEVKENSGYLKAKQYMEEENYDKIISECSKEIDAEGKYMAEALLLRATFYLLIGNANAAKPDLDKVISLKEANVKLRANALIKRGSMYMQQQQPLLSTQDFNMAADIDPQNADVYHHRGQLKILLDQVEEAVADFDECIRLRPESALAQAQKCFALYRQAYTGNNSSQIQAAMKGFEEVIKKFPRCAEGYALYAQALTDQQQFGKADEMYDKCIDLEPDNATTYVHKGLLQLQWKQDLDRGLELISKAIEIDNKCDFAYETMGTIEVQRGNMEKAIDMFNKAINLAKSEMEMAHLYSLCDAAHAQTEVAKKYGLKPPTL
UniProt O76003: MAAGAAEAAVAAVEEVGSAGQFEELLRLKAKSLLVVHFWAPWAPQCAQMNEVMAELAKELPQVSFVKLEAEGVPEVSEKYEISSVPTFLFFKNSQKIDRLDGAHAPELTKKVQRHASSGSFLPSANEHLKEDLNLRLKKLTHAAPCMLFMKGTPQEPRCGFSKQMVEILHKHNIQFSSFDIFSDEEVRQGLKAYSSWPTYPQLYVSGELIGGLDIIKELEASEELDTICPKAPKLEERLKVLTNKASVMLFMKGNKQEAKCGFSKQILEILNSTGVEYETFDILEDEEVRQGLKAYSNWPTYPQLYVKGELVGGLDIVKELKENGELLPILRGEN
UniProt O60870: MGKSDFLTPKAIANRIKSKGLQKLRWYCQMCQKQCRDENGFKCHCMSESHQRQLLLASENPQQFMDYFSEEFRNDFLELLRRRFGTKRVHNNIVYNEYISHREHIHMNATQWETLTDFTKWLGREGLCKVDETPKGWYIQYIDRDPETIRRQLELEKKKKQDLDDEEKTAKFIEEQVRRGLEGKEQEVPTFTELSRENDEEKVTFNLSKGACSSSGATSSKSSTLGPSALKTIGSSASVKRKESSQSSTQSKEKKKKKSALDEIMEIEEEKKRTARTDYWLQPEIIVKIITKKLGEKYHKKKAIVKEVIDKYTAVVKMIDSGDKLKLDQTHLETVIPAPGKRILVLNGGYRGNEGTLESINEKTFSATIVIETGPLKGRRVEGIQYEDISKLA
UniProt O75865, whole entry: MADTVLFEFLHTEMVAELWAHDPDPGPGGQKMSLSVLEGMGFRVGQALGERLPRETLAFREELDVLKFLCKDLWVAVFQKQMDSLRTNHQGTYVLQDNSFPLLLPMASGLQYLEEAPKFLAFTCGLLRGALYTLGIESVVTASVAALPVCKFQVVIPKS
UniProt O95400: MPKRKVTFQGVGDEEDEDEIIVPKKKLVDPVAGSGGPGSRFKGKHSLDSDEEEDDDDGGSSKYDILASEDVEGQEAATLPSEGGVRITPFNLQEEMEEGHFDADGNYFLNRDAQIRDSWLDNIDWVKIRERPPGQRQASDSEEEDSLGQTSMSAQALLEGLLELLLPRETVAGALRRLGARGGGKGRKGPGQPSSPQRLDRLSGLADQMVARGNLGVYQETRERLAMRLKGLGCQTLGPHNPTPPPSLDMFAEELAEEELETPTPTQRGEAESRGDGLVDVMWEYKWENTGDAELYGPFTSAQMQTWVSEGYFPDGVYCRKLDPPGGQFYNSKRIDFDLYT

± gives the standard deviation of the averaged measurements. Only a part is listed here, and it is no random draw. Small differences around the control level are noise.

Compound in this experiment: Nc1ncnc2c1ncn2[C@@H]1O[C@H](COP(=O)(O)OP(=O)(O)OP(=O)(O)O)[C@@H](O)[C@H]1O [adenosine triphosphate]
The experiment can be described thus: NP40-soluble protein abundance relative to vehicle (solubility fold change) (ratio); higher = more soluble protein in presence of ATP. The gist of the method: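 Data come from three independent experiments in which Dounce-homogenised Jurkat crude lysate was treated at eight concentrations from 0.1 to 10 mM. Treatment ran 10 min at room temperature and then 3 min at 37 °C, after which 0.8% NP40 and benzonase were added for 60 min at 4 °C before ultracentrifugation. The supernatant underwent TMT labelling and LC-MS/MS, and vsn-normalised intensities were expressed as fold change against the detergent-processed vehicle in each replicate.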

Take UniProt O75037 and related entries: the NP40-soluble protein abundance was 0.963 ± 0.03 (concentration: 0.1mM) and 1.05 ± 0.054 (concentration: 0.5mM).

Regarding EDF1 (UniProt O60869), the NP40-soluble protein abundance reads like this: (concentration: 0.1mM) 0.95 ± 0.041; (concentration: 0.5mM) 0.958 ± 0.058.

With ARIH2 (UniProt O95376), the NP40-soluble protein abundance is, setting by setting: (concentration: 0.1mM) 0.998 ± 0.076; (concentration: 0.5mM) 0.996 ± 0.066.

In the case of UniProt O75175 and related entries, the NP40-soluble protein abundance reads like this: (concentration: 0.1mM) 0.981 ± 0.033; (concentration: 0.5mM) 1.12 ± 0.058.

Take UniProt O75528: the NP40-soluble protein abundance runs as follows: (concentration: 0.1mM) 0.974 ± 0.038; (concentration: 0.5mM) 1 ± 0.036.

Consider DENND4B (UniProt O75064), for which the NP40-soluble protein abundance reads like this: (concentration: 0.1mM) 0.987 ± 0.039; (concentration: 0.5mM) 1.03 ± 0.068.

UniProt O60825 and related entries: the NP40-soluble protein abundance by setting is: (concentration: 0.1mM) 1.07 ± 0.083; (concentration: 0.5mM) 1.02 ± 0.028.

GRAP2 (UniProt O75791): the NP40-soluble protein abundance (concentration: 0.1mM) came out at 1.05 ± 0.061 and the NP40-soluble protein abundance (concentration: 0.5mM) came out at 1 ± 0.044.

For YEATS4 (UniProt O95619), the NP40-soluble protein abundance was found to be 0.938 ± 0.088 (concentration: 0.1mM) and 1.03 ± 0.088 (concentration: 0.5mM).

On to UniProt O95251 and related entries, for which the NP40-soluble protein abundance (concentration: 0.1mM) was found to be 0.957 ± 0.092 and the NP40-soluble protein abundance (concentration: 0.5mM) was 1.03 ± 0.1.

Regarding UniProt O95696 and related entries, the NP40-soluble protein abundance reads like this: (concentration: 0.1mM) 0.995 ± 0.092; (concentration: 0.5mM) 1.01 ± 0.11.

For the target UniProt O94842 and related entries, the NP40-soluble protein abundance by setting is: (concentration: 0.1mM) 0.936 ± 0.034; (concentration: 0.5mM) 0.918 ± 0.068.

On to UniProt O95671 and related entries, for which the NP40-soluble protein abundance was found to be 1.04 ± 0.068 (concentration: 0.1mM) and 1.03 ± 0.07 (concentration: 0.5mM).

For “UniProt O95758-2|O95758-6|O95758 and related entries”, the NP40-soluble protein abundance runs as follows: (concentration: 0.1mM) 1.02 ± 0.058; (concentration: 0.5mM) 1.03 ± 0.037.

Take SH3BGRL (UniProt O75368): the NP40-soluble protein abundance by setting is: (concentration: 0.1mM) 0.9505 ± 0.0039; (concentration: 0.5mM) 0.959 ± 0.04.

For SRP72 (UniProt O76094), the NP40-soluble protein abundance (concentration: 0.1mM) amounted to 0.994 ± 0.03 and the NP40-soluble protein abundance (concentration: 0.5mM) came to 1.03 ± 0.07.

Take UniProt O60830 and related entries: the NP40-soluble protein abundance by setting is: (concentration: 0.1mM) 0.92 ± 0.036; (concentration: 0.5mM) 0.906 ± 0.02.

Consider UniProt O95475, for which the NP40-soluble protein abundance is 1.02 ± 0.044 (concentration: 0.1mM) and 1.03 ± 0.065 (concentration: 0.5mM).

UniProt O75155 and related entries: the NP40-soluble protein abundance (concentration: 0.1mM) is 0.944 ± 0.015 and the NP40-soluble protein abundance (concentration: 0.5mM) turned out to be 0.96 ± 0.038.

MYO1D (UniProt O94832): the NP40-soluble protein abundance (concentration: 0.1mM) was found to be 1.09 ± 0.017 and the NP40-soluble protein abundance (concentration: 0.5mM) came to 1.19 ± 0.095.

For the target UniProt O95163, the NP40-soluble protein abundance turned out to be 1.05 ± 0.054 (concentration: 0.1mM) and 1.07 ± 0.084 (concentration: 0.5mM).

On to UniProt O94763 and related entries, for which the NP40-soluble protein abundance reads like this: (concentration: 0.1mM) 0.972 ± 0.025; (concentration: 0.5mM) 0.982 ± 0.057.

Consider UniProt O60508 and related entries, for which the NP40-soluble protein abundance (concentration: 0.1mM) was found to be 1.08 ± 0.065 and the NP40-soluble protein abundance (concentration: 0.5mM) is 1.05 ± 0.04.

As to NMT2 (UniProt O60551), the NP40-soluble protein abundance by setting is: (concentration: 0.1mM) 1.02 ± 0.032; (concentration: 0.5mM) 1.13 ± 0.03.

UniProt O75379 and related entries: the NP40-soluble protein abundance reads like this: (concentration: 0.1mM) 1.02 ± 0.15; (concentration: 0.5mM) 1.01 ± 0.16.

Consider UniProt O95453 and related entries, for which the NP40-soluble protein abundance by setting is: (concentration: 0.1mM) 1.05 ± 0.037; (concentration: 0.5mM) 1.03 ± 0.041.

As for UniProt O95551, the NP40-soluble protein abundance reads like this: (concentration: 0.1mM) 0.986 ± 0.056; (concentration: 0.5mM) 1 ± 0.031.

UniProt O60763 and related entries: the NP40-soluble protein abundance came to 0.954 ± 0.02 (concentration: 0.1mM) and 0.988 ± 0.052 (concentration: 0.5mM).

Take UniProt O75534 and related entries: the NP40-soluble protein abundance was 1.04 ± 0.054 (concentration: 0.1mM) and 1.04 ± 0.071 (concentration: 0.5mM).

Take UniProt O94826: the NP40-soluble protein abundance by setting is: (concentration: 0.1mM) 0.987 ± 0.037; (concentration: 0.5mM) 1 ± 0.038.

In the case of MAN1A2 (UniProt O60476), the NP40-soluble protein abundance reads like this: (concentration: 0.1mM) 1.03 ± 0.058; (concentration: 0.5mM) 0.997 ± 0.074.

Regarding UniProt O60880 and related entries, the NP40-soluble protein abundance is 0.975 ± 0.037 (concentration: 0.1mM) and 0.956 ± 0.05 (concentration: 0.5mM).

As to HUS1 (UniProt O60921), the NP40-soluble protein abundance reads like this: (concentration: 0.1mM) 1.01 ± 0.066; (concentration: 0.5mM) 1.04 ± 0.061.

As to RBBP9 (UniProt O75884), the NP40-soluble protein abundance (concentration: 0.1mM) is 1.01 ± 0.03 and the NP40-soluble protein abundance (concentration: 0.5mM) was 1 ± 0.051.

With POP4 (UniProt O95707), the NP40-soluble protein abundance was 0.936 ± 0.05 (concentration: 0.1mM) and 0.967 ± 0.013 (concentration: 0.5mM).

With UniProt O94964-2, the NP40-soluble protein abundance was 0.984 ± 0.075 (concentration: 0.1mM) and 1 ± 0.069 (concentration: 0.5mM).

Regarding PHF2 (UniProt O75151), the NP40-soluble protein abundance is, setting by setting: (concentration: 0.1mM) 1.01 ± 0.11; (concentration: 0.5mM) 1.02 ± 0.047.

With UniProt O94864 and related entries, the NP40-soluble protein abundance runs as follows: (concentration: 0.1mM) 0.9 ± 0.11; (concentration: 0.5mM) 0.896 ± 0.11.

For NUP155 (UniProt O75694), the NP40-soluble protein abundance is 1.09 ± 0.089 (concentration: 0.1mM) and 1.05 ± 0.069 (concentration: 0.5mM).

For the target GLRX3 (UniProt O76003), the NP40-soluble protein abundance by setting is: (concentration: 0.1mM) 1.02 ± 0.046; (concentration: 0.5mM) 1.06 ± 0.085.

For the target GIGYF1 (UniProt O75420), the NP40-soluble protein abundance was 1.11 ± 0.11 (concentration: 0.1mM) and 1.16 ± 0.12 (concentration: 0.5mM).

On to MRPS14 (UniProt O60783), for which the NP40-soluble protein abundance (concentration: 0.1mM) is 0.875 ± 0.13 and the NP40-soluble protein abundance (concentration: 0.5mM) amounted to 0.819 ± 0.12.

Consider “UniProt O60879-2|O60879-3|C9J6U3 and related entries”, for which the NP40-soluble protein abundance by setting is: (concentration: 0.1mM) 1.02 ± 0.043; (concentration: 0.5mM) 1.01 ± 0.048.

On to UniProt O75419 and related entries, for which the NP40-soluble protein abundance (concentration: 0.1mM) came out at 1.03 ± 0.079 and the NP40-soluble protein abundance (concentration: 0.5mM) is 1.03 ± 0.05.

For KIN (UniProt O60870), the NP40-soluble protein abundance is 1.05 ± 0.032 (concentration: 0.1mM) and 1.06 ± 0.08 (concentration: 0.5mM).

UniProt O75319 and related entries: the NP40-soluble protein abundance came out at 0.951 ± 0.12 (concentration: 0.1mM) and 0.965 ± 0.043 (concentration: 0.5mM).

UniProt O75865 and related entries: the NP40-soluble protein abundance (concentration: 0.1mM) came out at 0.925 ± 0.18 and the NP40-soluble protein abundance (concentration: 0.5mM) turned out to be 0.931 ± 0.14.

As to CD2BP2 (UniProt O95400), the NP40-soluble protein abundance (concentration: 0.1mM) is 0.931 ± 0.073 and the NP40-soluble protein abundance (concentration: 0.5mM) is 0.938 ± 0.05.

On to SF3B1 (UniProt O75533), for which the NP40-soluble protein abundance runs as follows: (concentration: 0.1mM) 1.05 ± 0.033; (concentration: 0.5mM) 1.13 ± 0.043.

As to GGCT (UniProt O75223), the NP40-soluble protein abundance is, setting by setting: (concentration: 0.1mM) 0.9349 ± 0.0049; (concentration: 0.5mM) 0.9763 ± 0.0038.

For the target CDS2 (UniProt O95674), the NP40-soluble protein abundance (concentration: 0.1mM) came out at 0.984 ± 0.083 and the NP40-soluble protein abundance (concentration: 0.5mM) amounted to 0.948 ± 0.079.

CCDC22 (UniProt O60826): the NP40-soluble protein abundance turned out to be 1 ± 0.028 (concentration: 0.1mM) and 0.977 ± 0.024 (concentration: 0.5mM).

In the case of UniProt O95155 and related entries, the NP40-soluble protein abundance reads like this: (concentration: 0.1mM) 1.04 ± 0.07; (concentration: 0.5mM) 1.04 ± 0.038.

For the target RNGTT (UniProt O60942), the NP40-soluble protein abundance by setting is: (concentration: 0.1mM) 1.05 ± 0.029; (concentration: 0.5mM) 1.06 ± 0.051.

Take ATP6V1G1 (UniProt O75348): the NP40-soluble protein abundance reads like this: (concentration: 0.1mM) 0.909 ± 0.094; (concentration: 0.5mM) 0.881 ± 0.16.

On to UGDH (UniProt O60701), for which the NP40-soluble protein abundance stood at 1.02 ± 0.026 (concentration: 0.1mM) and 1.03 ± 0.06 (concentration: 0.5mM).

On to N4BP1 (UniProt O75113), for which the NP40-soluble protein abundance reads like this: (concentration: 0.1mM) 0.977 ± 0.011; (concentration: 0.5mM) 0.97 ± 0.017.

For the target UniProt O76021 and related entries, the NP40-soluble protein abundance (concentration: 0.1mM) is 1.02 ± 0.039 and the NP40-soluble protein abundance (concentration: 0.5mM) was determined as 1.11 ± 0.12.

Regarding CIAO1 (UniProt O76071), the NP40-soluble protein abundance reads like this: (concentration: 0.1mM) 1.03 ± 0.042; (concentration: 0.5mM) 0.9961 ± 0.0077.

Turning to PGLS (UniProt O95336), the NP40-soluble protein abundance by setting is: (concentration: 0.1mM) 0.982 ± 0.057; (concentration: 0.5mM) 0.938 ± 0.075.
